The source of these data is the supplement of paper PMC12889115.

SMILES strings stand for the structures. This is one part of the list. These are raw signals, not scaled to a control.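 Primary screen: polymyxin B was added at a level permeabilizing Salmonella outer membranes while sparing inner membranes. DMSO wells, both with and without polymyxin B, established maximum growth. Plate-to-plate variation meant each plate was ranked on its own, and the lowest-OD600 compounds were selected as hits.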

In the assay the test system is Salmonella enterica serovar Typhimurium SL1344. Nature of the assay: bacterial growth OD600 after 18 h with compound and polymyxin B; higher = more bacterial growth (less inhibition). The following applies: 50 µM, Mueller-Hinton broth.

With `Cc1nc(N2CCC(C(=O)NCC(C)c3ccccc3)CC2)nc2cc3c(cc12)CCC3` (stereo not given), the “bacterial growth OD600” value (polymyxin B 0.75 µg/mL) was 0.71.

For the molecule `Cc1ccc(OCCN(C)C(=O)C2CC23CCN(Cc2c(C)[nH]c4ccccc24)CC3)cc1` (stereo not given), the “bacterial growth OD600” value (polymyxin B 0.75 µg/mL) turned out to be 0.914.

As for `Cc1cc(C(=O)N2CCC(CCC(=O)NC3CCN(Cc4ccccc4)C3)CC2)n[nH]1` (stereo not given), the “bacterial growth OD600” value (polymyxin B 1 µg/mL) is 0.948.

For `Cc1cc(C)nc(CCNC(=O)c2ccc(OC3CCN(C(=O)C4CC4)CC3)cc2)n1`, the “bacterial growth OD600” value (polymyxin B 1 µg/mL) was 1.25.

As for `COc1ccc2c(c1)OC(C)CN(CCNC(=O)CCc1nc3ccccc3s1)C2` (stereo not given), the “bacterial growth OD600” value (polymyxin B 0.75 µg/mL) stood at 0.822.

Take `COc1ccc(C(=O)CCC(=O)NCC2CC(Cc3cccc(F)c3)=NO2)cc1` (stereo not given): the “bacterial growth OD600” value (polymyxin B 0.75 µg/mL) was 0.845.

Take `COc1ccc(S(=O)(=O)NCC2CCCN(Cc3ccc(C)s3)C2)cc1` (stereo not given): the “bacterial growth OD600” value (polymyxin B 1 µg/mL) was 0.791.

For `CCCCn1c(CN2CCCCC2CC(=O)OCC)cnc1S(=O)(=O)CC` (stereo not given), the “bacterial growth OD600” value (polymyxin B 0.75 µg/mL) stood at 0.96.

Consider `CS(=O)(=O)NC1CC(=O)N(CC2CCCCC2)C1` (stereo not given), for which the “bacterial growth OD600” value (polymyxin B 1 µg/mL) turned out to be 1.06.

As for `O=C1O[C@@H]2CN(Cc3ccc(OCCO)cc3)C[C@@H]2N1C1CCCC1`, the “bacterial growth OD600” value (polymyxin B 0.75 µg/mL) was found to be 0.855.

For `COc1cc2nc(N(C)C)c(CNCc3cccc(F)c3)cc2c(OC)c1OC`, the “bacterial growth OD600” value (polymyxin B 0.75 µg/mL) was found to be 0.742.

In the case of `Cc1noc(C)c1CCC(=O)NC1CCCN(c2ccc(C(F)(F)F)cn2)C1` (stereo not given), where the note is “polymyxin B 1 µg/mL”, the “bacterial growth OD600” value was determined as 0.84.

For `CN(C)CCC1CN(C(=O)CCc2ccsc2)CCO1` (stereo not given), the “bacterial growth OD600” value (polymyxin B 0.75 µg/mL) came out at 0.908.

In the case of `COc1cc(C(=O)N(C)CCOc2ccc(C)cc2)ccc1OC1CCN(C(C)=O)CC1`, the “bacterial growth OD600” value (polymyxin B 0.75 µg/mL) came out at 0.887.

As for `COC(=O)c1ccc(C(=O)N2CCc3onc(-c4ccccc4F)c3C2)nc1`, the “bacterial growth OD600” value (polymyxin B 0.75 µg/mL) amounted to 0.922.

Turning to `CN(C(=O)CC(c1ccccc1)c1cccc(Cl)c1)C1CCOCC1` (stereo not given), the “bacterial growth OD600” value (polymyxin B 1 µg/mL) came out at 0.01.

On to `CCOC(=O)C1(Cc2ccc(F)cc2)CCCN(C(=O)c2ccc(F)cc2)C1` (stereo not given), for which, for the setting “polymyxin B 1 µg/mL”, the “bacterial growth OD600” value amounted to 0.726.

With `COCC(=O)Nc1cc(C(=O)N[C@H](C)c2ccc(OC)cc2)cc2nc(-c3cccnc3)n(C)c12`, where the note is “polymyxin B 0.75 µg/mL”, the “bacterial growth OD600” value was 0.8.

Regarding `Cc1nn(C)c(C)c1CN(C(=O)Cn1nnnc1CN1CCC(C)CC1)C1CC1`, the “bacterial growth OD600” value (polymyxin B 1 µg/mL) worked out at 0.962.

`Cc1ncc2c(c1CNC(=O)/C=C/c1ccccc1F)CCN(C(=O)/C=C/C(C)C)C2`: the “bacterial growth OD600” value (polymyxin B 0.75 µg/mL) is 0.853.

As to `Cc1csc(CNC(=O)CC(c2cccc(O)c2)c2cccc(Cl)c2)n1` (stereo not given), the “bacterial growth OD600” value (polymyxin B 0.75 µg/mL) was -0.005.

With `Cc1cccc(C(=O)N2CCC(C3(CCC(C)C)NC(=O)N(Cc4ccccn4)C3=O)CC2)c1C` (stereo not given), under “polymyxin B 0.75 µg/mL”, the “bacterial growth OD600” value turned out to be 0.929.

Consider `CC(C)n1cc(CNC2CCCc3nc(-c4ccccc4)ncc32)cn1` (stereo not given), for which the “bacterial growth OD600” value (polymyxin B 1 µg/mL) amounted to 0.846.

Consider `CCCN(Cc1cnc(S(=O)(=O)C(C)C)n1Cc1ccccc1F)CC1CC1`, for which the “bacterial growth OD600” value (polymyxin B 1 µg/mL) came out at 0.006.

Consider `COC(=O)C1CCCCN1C(=O)c1c(OC)cc(=O)n2c1CCN(Cc1cccc(Cl)c1)CC2` (stereo not given), for which the “bacterial growth OD600” value (polymyxin B 0.75 µg/mL) is 0.826.

Regarding `Cc1ccc2oc(C(=O)N3CCN(c4cccc(C)n4)CC3)c(C)c2c1`, the “bacterial growth OD600” value (polymyxin B 1 µg/mL) was found to be 0.404.

Take `COCC(=O)Nc1cc(C(=O)NCCCOC(C)C)c2c(c1)ncn2Cc1ccc(F)cc1`: the “bacterial growth OD600” value (polymyxin B 0.75 µg/mL) is 0.828.

Regarding `Cc1nc(N2CCC(C(=O)NCCCn3ncc4ccccc43)CC2)nc2ccc(C(C)C)cc12`, the “bacterial growth OD600” value (polymyxin B 0.75 µg/mL) came to 0.627.

As for `Clc1cccc(CN2CCN(c3nc4nonc4nc3NC3CC3)CC2)c1`, the “bacterial growth OD600” value (polymyxin B 1 µg/mL) worked out at 0.891.

On to `Fc1ccc(F)c(CN(CC2CCN(C3CCCC3)CC2)CC2CCCO2)c1` (stereo not given), for which, under “polymyxin B 1 µg/mL”, the “bacterial growth OD600” value came to 1.04.
